Results taken from PubChem BioAssay AID1794845 (National Center for Advancing Translational Sciences (NCATS), 2023).
Fewer than 10 of roughly 6,900 compounds were called active. Calls come from the whole dose curve; as a rule, active = well fitted curve in the direction sought with a large enough effect; inconclusive = small, poorly fitted or top-dose-only effect, or another doubt; inactive = no such curve, though single readings can be large or run the other way. The list shows a part of the results.

Protein sequences, listed by entry. Tags and fused reporters are not part of them. Lines headed by an entry give the natural chain unless they say otherwise; changes in a name come on top.
UniProt C7C422: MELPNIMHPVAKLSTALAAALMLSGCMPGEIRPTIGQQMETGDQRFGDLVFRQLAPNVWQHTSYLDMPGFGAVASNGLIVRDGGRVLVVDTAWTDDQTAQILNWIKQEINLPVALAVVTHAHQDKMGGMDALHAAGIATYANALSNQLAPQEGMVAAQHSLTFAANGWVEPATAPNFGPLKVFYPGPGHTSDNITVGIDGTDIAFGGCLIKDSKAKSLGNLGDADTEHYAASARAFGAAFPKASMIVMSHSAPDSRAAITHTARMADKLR

The compounds below were run against Metallo-beta-lactamase type 2 (Klebsiella pneumoniae) (UniProt C7C422) (assay: qHTS to identify inhibitors of the New Delhi Metallo-beta-lactamase (NDM): primary screen against the NCATS Gemini Collection). Conditions: NDM-1 enzyme, meropenem hydrolysis, absorbance 300 nm; at 38.4 µM (top of the series) unless noted.
Procedure, shortened: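 NDM-1 at 2 nM final in 50 mM HEPES pH 7.0, 1 uM ZnSO4, 0.01% Tween20, preincubated >30 min with compound. Meropenem 50 uM final added; absorbance at 300 nm after 30 min.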
Note: % of control where 0% means no effect.

Activity % (negative = inhibition), inactive:
CN1CCN(C(CN)C2CCCCC2)CC1 (centres undefined) 0.469% [at 77.1 µM]
CC1(C)C(=O)N(CC2CCOCC2)[C@H]2CN(Cc3cccs3)C[C@@H]2[S+]1(=O)[O-] -0.26% [at 57.5 µM]
CNc1nc(C(=O)N2CCC(c3nccn3Cc3ccncc3)CC2)cs1 4.7%
CN(C)CCN(C)[C@@H]1[C@H](O)[C@H](CO)O[C@@H]1CN(Cc1ccc(Cl)cc1)Cc1cccc(Cl)c1 3.27%
COCCNC(=O)C(NC(=O)c1ccccc1)C1CCN(C(=O)C2CC2)CC1 (centres undefined) 0.454%
C[C@@H]1C(=O)O[C@H]2[C@H]1CC[C@@]1(C)Cc3sc(NC(=O)COc4ccccc4)nc3[C@@H](C)[C@H]21 13.6%
CC(C)(C)OC(=O)NCCCC(=O)NCc1ccnc2[nH]ccc12 7.31%
Cc1occc1C(=O)N1CCCC(O)(CNC(=O)N2CCOCC2)CC1 (centres undefined) -3.21%
O=C(Cc1ccccn1)N1CCC(C(=O)N2CCC(c3nc4ncccc4[nH]3)CC2)CC1 3.96%
COc1ccc(OC2CN(Cc3cccnc3)C2)cc1 -12.6% [at 57.5 µM]
CC(=O)Nc1ccc(OCC(=O)N2CCC(C)CC2)nc1 -0.0841%
COCCN(C)C[C@@H]1CN(C(=O)c2nc(-c3ccccc3)[nH]c2C)C[C@@H]1CO 16%
O=C(NCc1ccc2c(c1)OCO2)c1csc(N2CCN(c3ccc(F)cc3)CC2)n1 2.96%
CC(=O)N1CCn2c(nnc2-c2ccccc2)C1 8.68% [at 57.5 µM]
CCN1C(=O)CCc2cc(NC(=O)CC(C)C)ccc21 -2.76%
CC(C)Cn1c(=O)n(CC(C)N2CCCC2)c2cc(C(=O)O)cnc21 (centres undefined) 4.04%
COc1ccc(C(=O)N[C@@H]2CCOC[C@H]2Oc2ccccn2)c(F)c1F -1.2%
O=C1NC(=NC2CCCCC2)C2(CCCN([S+](=O)([O-])c3cccc(C(F)(F)F)c3)C2)N1c1cc(F)cc(F)c1 (centres undefined) -8.36%
CC1=NS(=O)(=O)N(C)C=C1C(=O)OCc1nc(C)no1 31.4%
NS(=O)(=O)c1ccc(C(=O)N[C@H](c2cccs2)C2CC(O)C2)cc1 (some centres undefined) 8.84%
CC(=O)N1CCOc2ccc(CCC(=O)N3CCN(C4CCCCC4)CC3)cc2C1 -7.13%
C=CCNc1nc(C)nc2c1CCN(C(=O)Cc1nnc(N)s1)CC2 -1.18%
CCCn1c(C)c(CC(=O)NCC2COCCO2)c2c1CC(C)(C)CC2=O (centres undefined) 9.65%
O=[S+]([O-])(c1cccs1)N1CCCC2(CC(c3ccccc3)=NO2)C1 (centres undefined) -4.24%
CCN1c2cc(C(=O)NCc3cccc(OC)c3)ccc2C(=O)N2CCCCCC21 (centres undefined) -1.41%
Cc1cc(S(=O)(=O)N[C@@H]2CCOC[C@H]2Oc2ccccn2)c(C)s1 -0.546%
COC[C@H]1C[C@@H](NC(=O)Nc2cccnc2)[C@H](O)[C@@H]1O 37.7% [at 77.1 µM]
Cc1ccc(CCNC(=O)c2cc3c(=O)[nH]c(C)cn3n2)cc1 -2.85%
O=C(NCc1ccccc1Cl)c1ccc2nnc(-c3ccoc3)n2c1 6.12% [at 57.5 µM]
CN1CCN(c2ncnc3c2CN(C2CCCCC2)C(=O)CN3C)CC1 7.11%
O=C(Cc1ccsc1)N1CCC(n2cc(-c3nc(-c4ccccc4)no3)nn2)C1 (centres undefined) -1.69%
CC(C)c1nccn1CCCNc1nc(-c2ccncc2)nc2c1cnn2C -0.454%
CCOC(=O)c1cccc(NC(=O)N2CC[C@@H](CC(=O)NCc3ccccc3OC)[C@@H](CC)C2)c1 1.87%
COc1ccccc1-c1noc(CCC(=O)N2CCC(Cc3noc(C)n3)CC2)n1 4.71%
COC[C@@H]1CN(Cc2ccco2)C[C@H]1C(=O)N(C)C 0.78%
CC(=O)NCc1nnc2n1C(C(=O)NC1CCCCCC1)CC2 (centres undefined) 3.06% [at 57.5 µM]
CC(C)CC(=O)N1C(C(=O)NCC2CCCO2)COC12CCC(C)CC2 (centres undefined) 0.607%
O=C(NCc1ccc(Cl)cc1)c1c[nH]c2ncccc12 5.54% [at 57.5 µM]
COc1ccc(-c2cnc3n[nH]c(-c4ccccc4C)c3n2)cn1 30.4% [at 57.5 µM]
COc1ccc2cc(C3CN(CCC(=O)NC(C)(C)C)CCO3)ccc2c1 (centres undefined) -2.11%
Cn1ccnc1C(=O)N1CCC(Cc2ccc(CCC(=O)N3CCCC3)cc2)CC1 -2.12%
Cn1cncc1-c1nnc([C@H]2CCN(CC3CCCCC3)C2)o1 20.3% [at 57.5 µM]
O=C(C1CCCO1)N1CCN(c2nc(-c3cccnc3)nc3c2CNC3)CC1 (centres undefined) 15.7%
CCc1ccc(CNC(=O)CN2C(=O)NC3(CCOCC3)C2=O)cc1 8.49%
CC(C)CN[C@H]1CO[C@H]2[C@@H]1OC[C@@H]2Nc1nccc(-c2cccs2)n1 8.35% [at 57.5 µM]
CCc1nc(-c2c3n(c(=O)n(CC(=O)NCc4cccc(OC)c4)c2=O)CCCC3)no1 -6.6%
Cc1cccc2nc(CNC(=O)c3cccc(C4CCNC4)c3)cn12 (centres undefined) 15.3%
O=C(NCc1cccc(C(F)(F)F)c1)c1nn(CCOc2ccccc2)c2c1CNCC2 -1.9%
CC(C)CCN1C(=O)CC[C@]2(C(=O)NCc3cccs3)CCCC[C@@H]12 0.919%
O=C(c1ccccn1)N1C[C@@H]2C[C@H](C1)c1ccc(NS(=O)(=O)Cc3ccccc3)c(=O)n1C2 44.6%
CCn1nccc1C(=O)N1CCCC(c2nnc(CN3CCCC3)n2C)C1 (centres undefined) -5.8%
CCCn1cc(-c2ccnc(NCc3c(F)ccc(C)c3F)n2)c(C)n1 -0.376%
Cc1cc(CN2CCC3(CC2)CC(c2ccccc2)C(=O)N(C2CC2)C3)on1 (centres undefined) -1.05%
CN[C@@H](C)c1nc(C2CCOCC2)nn1CC1CCCCC1 1.27%
COCC(=O)N(C1CCOCC1)C1CCN(C(=O)c2cccnc2C)CC1 10.8%
CCNC(=O)[C@@H]1C[C@H](NC(=O)c2ccco2)CN1C(=O)Cn1nccc1C -0.914%
COC(=O)CNC(=O)N1CCCC1c1nc(CCOCC2CC2)no1 (centres undefined) 19.8%
Cc1ncsc1CN1CCC2(CC1)CC(CC(=O)NCc1ccncc1)CCO2 (centres undefined) -3.89%
Cc1ccc(OCCC2CCN(C(=O)Cn3cnc4c3c(=O)n(C)c(=O)n4C)C2)cc1 (centres undefined) 9.19%
O=C(c1cnc2ccccn12)N1CCc2c(nc(-c3ccccc3)[nH]c2=O)C1 8.8%
COCCn1c(C)cnc1CCNC(=O)NCC(C)C -3.47%
O=C(Cn1nc2n(c1=O)CCCC2)N1CCN(c2ccc(F)cc2)CC1 0.102%
O[C@H]1CC[C@@H](Cc2cc(CN3CCN(c4ccccc4)CC3)on2)O[C@@H]1CNCc1ccccc1 0.727%
Nc1nc(NCc2ccc(N3CCCC3=O)cc2)cc(C2CC(O)C2)n1 (centres undefined) 3.92%
O=C(Nc1ccc(F)cc1)c1cc(-c2ccc[nH]2)n[nH]1 53.1%
CCN(C)C(=O)CN1C[C@@H]2C[C@H]1C(=O)N2c1cc(-c2ccccc2)ccc1OC -3.47%
CN(Cc1ccccc1)C1CCOC2(CCN(C(=O)CCc3nc4ccccc4[nH]3)CC2)C1 (centres undefined) -4.05%
COC(=O)[C@H]1CN(C(=O)NC(C)C)CCN1S(C)(=O)=O 5.95% [at 57.5 µM]
Cc1nnc(-c2cc(-c3cccc(O)c3)ccn2)n1CCc1ccccc1 10.1% [at 57.5 µM]
O=C(NCc1ccccc1)c1cnc2n1CCN(Cc1c[nH]c3ccccc13)CC2 4.57% [at 57.5 µM]
O=C1NN=C(c2ccccn2)C12CCN([S+](=O)([O-])c1cccc(C(F)(F)F)c1)CC2 7.54%
Cc1noc2c(N3CC[S+](=O)([O-])CC3)cc(-c3cccnc3)nc12 83.6% [at 57.5 µM]
CCOc1ncccc1C(=O)N[C@H](c1cncc(OC)c1)C1CC(O)C1 (some centres undefined) -0.534%
Cc1nnc2n1C(C)CN(C(=O)Cn1nnc(-c3ccc(F)cc3)n1)C2 (centres undefined) 6.94%
CCc1ccc(CN2CCCC23Cc2ccccc2CNC3=O)s1 (centres undefined) 25.2%
CC1=NOC2(CCN(Cc3ccc(N(C)C)cc3)CC2)C1 1.48% [at 57.5 µM]
Cc1noc([C@@H](C)NCc2cccc(Cl)c2)c1C(=O)O 104% [at 57.5 µM]
O=C1COc2ccc(N3CCOCC3)nc2CN1Cc1ccc(F)cc1 106% [at 57.5 µM]
O=C(c1cccc(OC(F)F)c1)N1CC[C@H](N2CCOCC2)[C@H](CCCO)C1 0.772%
COc1ccccc1C(=O)N1CCC2(CC1)NC(=O)c1ccccc1O2 0.364%
CCOc1ccc(NC(=O)Cn2nc3n(c2=O)CCN(Cc2ccccc2C)C3=O)cc1 -0.326%
Cc1ccccc1C(=O)N1CCC(N2CCCNC2=O)CC1 0.886% [at 57.5 µM]
CC(C)N1C(=O)C2(CCCCC2)C1C(=O)NCc1nc2ccccc2n1C (centres undefined) 7.27%
COc1ccc(N2Cc3c(NCCc4ccccc4F)ncnc3N(C)CC2=O)cc1 2.07%

An excerpt from above in order of count of non-hydrogen atoms, descending.
Activity % (negative = inhibition), inactive:
Cc1cc(CN2CCC3(CC2)CC(c2ccccc2)C(=O)N(C2CC2)C3)on1 (centres undefined) -1.05%
CC(C)N1C(=O)C2(CCCCC2)C1C(=O)NCc1nc2ccccc2n1C (centres undefined) 7.27%
CCc1ccc(CNC(=O)CN2C(=O)NC3(CCOCC3)C2=O)cc1 8.49%
Cc1cc(S(=O)(=O)N[C@@H]2CCOC[C@H]2Oc2ccccn2)c(C)s1 -0.546%
CC1=NOC2(CCN(Cc3ccc(N(C)C)cc3)CC2)C1 1.48% [at 57.5 µM]
